Source: PubChem BioAssay AID1259405 (NCATS, 2018)
In all, the deposit lists about 50,000 reagents; shown is a part drawn at random. In the full data, about 4,000 (8%) were called active. 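Mouse siRNA library applied to hamster cells; one well for each siRNA.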 A number with no mark means an inactive call. The numbers tell different reagents against one gene apart.

- Screen: 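Mouse-designed siRNAs used to find CHO productivity engineering targets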 (primary screen)
- Cell system: Chinese hamster CHO-K1 ovary cells with stable secreted eGFP expression
- Knock-down reagent: single siRNA against mouse genes, 0.8 pmol siRNA per well (2 µl of 400 nM stock)
- Duration: 3 days
- Measurement: 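Per-well intracellular GFP measured by laser scanning cytometry, plus viability from ATP luminescence, each relative to plate median of non-targeting control wells, in %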
- Reading the numbers: GFP, % of control: higher = more GFP per well, higher productivity; viability (ATP), % of control: higher = more viable cells (more ATP)
- Hit rule: 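a knock-down is called active if GFP reaches 120% or more of non-targeting control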

Zbtb22 #1 gave GFP, % of control 129 (active); viability (ATP), % of control 56.
Against Zbtb22 #2, the values are GFP, % of control 98.6; viability (ATP), % of control 83.2.
Zbtb22 #3 gave GFP, % of control 99.4; viability (ATP), % of control 92.9.
Silencing of Fzd1 #1 came out at: GFP, % of control 106; viability (ATP), % of control 168.
Against Fzd1 #2 the deposit lists GFP, % of control 105; viability (ATP), % of control 97.6.
Cct6a #1 gave GFP, % of control 76.6; viability (ATP), % of control 65.3.
Cct6a #2 showed GFP, % of control 88.7; viability (ATP), % of control 49.9.
Depletion of Cct6a #3 gave: GFP, % of control 50.4; viability (ATP), % of control 30.4.
After knock-down of Abce1 #1, the screen gave GFP, % of control 118; viability (ATP), % of control 111.
Abce1 #2 showed GFP, % of control 39.6; viability (ATP), % of control 59.6.
After knock-down of Nfatc3 #1, the record shows GFP, % of control 42.8; viability (ATP), % of control 59.
Knock-down of Nfatc3 #2 resulted in: GFP, % of control 77.7; viability (ATP), % of control 96.2.
For Nfatc3 #3, the values are GFP, % of control 57.1; viability (ATP), % of control 82.
For Serpinb9d #1, the values are GFP, % of control 87.7; viability (ATP), % of control 77.7.
With knock-down of Serpinb9d #2 the results were GFP, % of control 100; viability (ATP), % of control 82.2.
With knock-down of Serpinb9d #3 the results were GFP, % of control 131 (active); viability (ATP), % of control 119.
Casq2 #1 scored GFP, % of control 113; viability (ATP), % of control 112.
Knock-down of Casq2 #2 came out at: GFP, % of control 55.4; viability (ATP), % of control 45.
With knock-down of Ccnh #1, the record shows GFP, % of control 107; viability (ATP), % of control 96.5.
After knock-down of Ccnh #2, the screen gave GFP, % of control 67.7; viability (ATP), % of control 77.3.
For Stat5b #1, the entry reads GFP, % of control 48.3; viability (ATP), % of control 66.
Against Stat5b #2, the entry reads GFP, % of control 57.3; viability (ATP), % of control 68.3.
For Stat5b #3, the values are GFP, % of control 56; viability (ATP), % of control 76.1.
Against Aldh6a1 #1 the deposit lists GFP, % of control 108; viability (ATP), % of control 92.7.
Against Aldh6a1 #2, the entry reads GFP, % of control 71.5; viability (ATP), % of control 76.6.
Depletion of Aldh6a1 #3 gave: GFP, % of control 104; viability (ATP), % of control 77.3.
Against Zfp639 #1, the entry reads GFP, % of control 76.8; viability (ATP), % of control 65.4.
Knock-down of Zfp639 #2 resulted in: GFP, % of control 81.2; viability (ATP), % of control 76.8.
Against Zfhx3 #1, the entry reads GFP, % of control 72.5; viability (ATP), % of control 83.6.
Zfhx3 #2 showed GFP, % of control 102; viability (ATP), % of control 86.5.
Zfhx3 #3 gave GFP, % of control 62.3; viability (ATP), % of control 67.6.
Against Extl3 #1 the deposit lists GFP, % of control 87.6; viability (ATP), % of control 117.
After knock-down of Extl3 #2, the record shows GFP, % of control 103; viability (ATP), % of control 135.
Extl3 #3 showed GFP, % of control 94.2; viability (ATP), % of control 117.
After knock-down of Rad23b #1 the results were GFP, % of control 92; viability (ATP), % of control 65.
Silencing of Rad23b #2 gave: GFP, % of control 68.4; viability (ATP), % of control 67.7.
Silencing of Rad23b #3 resulted in: GFP, % of control 75.9; viability (ATP), % of control 59.4.
For Cbx7 #1, the entry reads GFP, % of control 68.8; viability (ATP), % of control 76.5.
With knock-down of Cbx7 #2 the results were GFP, % of control 84.3; viability (ATP), % of control 74.9.
Against Cbx7 #3, the values are GFP, % of control 70.2; viability (ATP), % of control 84.8.

5 entries from above, arranged by “GFP, % of control”, high to low:
Serpinb9d #3 | GFP, % of control: 131 (active); viability (ATP), % of control: 119
Serpinb9d #2 | GFP, % of control: 100; viability (ATP), % of control: 82.2
Serpinb9d #1 | GFP, % of control: 87.7; viability (ATP), % of control: 77.7
Nfatc3 #2 | GFP, % of control: 77.7; viability (ATP), % of control: 96.2
Nfatc3 #3 | GFP, % of control: 57.1; viability (ATP), % of control: 82
